According to PubChem BioAssay AID504834 (National Center for Advancing Translational Sciences (NCATS), 2011):
Hit rate of the full screen: of about 320,000 compounds, about 22,000 (6.9%) were called active. Inconclusive means that the source gave no clear call. Such entries were picked first, then a sample of the others. Calls follow the shape of the dose curve; as a rule, active = well fitted inhibition curve with a large enough effect; inconclusive = small, poorly fitted or top-dose-only effect, or another doubt; inactive = no such curve, though single readings can be large or run the other way. Where the call is inconclusive, the potency comes from a doubtful curve fit.

Assay: Primary qHTS for delayed death inhibitors of the malarial parasite plastid, 96 hour incubation
Conditions: P. falciparum luciferase reporter growth; series mostly up to 28.7 µM; activity change, negative = inhibition: at the top concentration
How it was run: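 Infected RBCs, 2% Hct / 0.05% parasitemia final; luciferase-reporter P. falciparum; cpd 96 h, 37 C, 5% CO2; luciferase detection reagent; luminescence.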
% is scaled to controls: 0 for no effect and ±100 for the full control effect; potency is read from the fitted curve at half-maximal effect.

Row | SMILES | Potency | activity change, negative = inhibition
1 | CCOC(=O)c1sc(NC(=O)CSc2n[nH]c(-c3ccc(Cl)cc3Cl)n2)c(C#N)c1C | inconclusive: 0.0415 µM [inhibitor, full curve, poor fit] | 
2 | NC(=O)C1CCN(C(=O)CN(C2CCCCC2)S(=O)(=O)c2ccc(F)cc2)CC1 |  | inactive: 8.13%
3 | CC(C)C(O)C1CCN(Cc2nc(-c3cccs3)no2)CC1 (stereo not given) | inconclusive: 13.1 µM [inhibitor, single point] | 
4 | O=C(COc1ccc2ccccc2c1)NCCNC(=O)COc1ccc2ccccc2c1 | inconclusive: 10.4 µM [inhibitor, single point] | 
5 | O=C(CCC1N=C2c3ccccc3N=C(SCC(=O)NCC3CCCO3)N2C1=O)NCc1ccc(F)cc1 (stereo not given) | inconclusive: 7.38 µM [inhibitor, partial curve] | 
6 | C/C(=N\NC(=S)Nc1c(C)cccc1C)c1cc2ccccc2o1 | active: 11.7 µM | 
7 | O=C(CCN1CCN(c2ccccc2)CC1)Nc1cccc(Br)c1 | inconclusive: 4.15 µM [inhibitor, single point] | 
8 | Cc1ccc(SCc2c(-c3ccccc3)nn(C)c2Cl)cc1 | inconclusive: 18.5 µM [inhibitor, single point] | 
9 | CN(C)CCCN(C(=O)c1cc(Cl)sc1Cl)c1nc2cc3c(cc2s1)OCO3 | inconclusive: 20.8 µM [inhibitor, single point] | 
10 | O=C(c1ccc(CSc2nc3ccncc3[nH]2)cc1)N1CCCCC1 | active: 11.7 µM | 
11 | COc1cccc(NC(=O)Cc2ccccc2)c1 | inconclusive: 3.29 µM [inhibitor, partial curve, poor fit] | 
12 | CCOc1ccc(N2C(=O)CSC2=NC#N)cc1 |  | inactive: -2.8%
13 | O=[N+]([O-])c1ccc(Cc2nnc(-c3ccccc3Cl)o2)cc1 | inconclusive: 10.4 µM [inhibitor, partial curve, poor fit] | 
14 | COc1ccc2oc3cc(C)[n+]([O-])c(-c4ccc(Br)cc4)c3c2c1 | inconclusive: 18.5 µM [inhibitor, single point] | 
15 | O=c1c2[nH]c3ccc(Cl)cc3c2ncn1Cc1ccccn1 | inconclusive: 16.5 µM [inhibitor, single point] | 
16 | COc1ccc(/C=N/NC(=O)c2cccc(NC(=O)c3ccccc3Cl)c2)c(OC)c1 |  | inactive: -9.27%
17 | O=C(NCc1ccccn1)Nc1cc(Cl)ccc1Cl | inconclusive: 0.0033 µM [inhibitor, full curve, poor fit] | 
18 | CC#CCc1cc2ccccc2c(=O)o1 | inconclusive: 10.4 µM [inhibitor, single point] | 
19 | CC(OC(=O)c1ccc([N+](=O)[O-])s1)C(=O)Nc1ncc(Cl)cc1Cl (stereo not given) |  | inactive: 0.0892%
20 | COC(=O)c1cccc(Nc2cc(C)nc(-c3ccccc3O)n2)c1 |  | inactive: 108%
21 | CC(=O)N1CCN(C(C)=O)C1c1ccccc1 | inconclusive: 18.5 µM [inhibitor, single point] | 
22 | CCCCC(=O)Nc1ccc(C(=O)Nc2ccc(S(=O)(=O)Nc3nccc(C)n3)cc2)cc1 |  | inactive: 11.5%
23 | COc1ccc(NC(=O)c2noc(C(C)C)c2[N+](=O)[O-])cc1 |  | inactive: 19.1%
24 | CCCc1cc(=O)[nH]c(SCCOC(=O)c2ccccc2)n1 |  | inactive: 27.7%
25 | O=[N+]([O-])c1cnccc1Nc1ccccc1 |  | inactive: -11.4%

Row | SMILES | Potency | activity change, negative = inhibition
26 | CN(C)CCCN1c2ccccc2CCc2ccc(Cl)cc21 | inconclusive: 13.1 µM [inhibitor, single point] | 
27 | O=C(N/N=C/c1cccnc1)c1ccc([N+](=O)[O-])cc1Cl |  | inactive: 51.5%
28 | CCCCCCC(=O)N/N=C/Cc1ccccc1 |  | inactive: 41.7%
29 | Cc1c(C(=N)C(C#N)C#N)c(=N)oc2c1ccc1ccccc12 |  | inactive: 33.5%
30 | CCCCOc1ccc(C(=O)NCC2(c3ccc(OC)cc3)CCOCC2)cc1 |  | inactive: -20.4%
31 | C=CCn1c(SCc2cc(=O)n3ccsc3n2)nc2scc(C3CC3)c2c1=O | active: 4.15 µM | 
32 | CCC(=O)N=c1n(C)c2ccccc2n1CCOc1ccccc1 | inconclusive: 18.5 µM [inhibitor, single point] | 
33 | COc1ccc(S(=O)(=O)N2CCC3(CC2)OCCN3S(=O)(=O)c2ccc(OC)cc2)cc1 | active: 9.28 µM | 
34 | CSc1ccc(CN(C)CC(=O)Nc2ccccc2C(=O)NC2CC2)cc1 | inconclusive: 13.1 µM [inhibitor, single point] | 
35 | Cc1cc(C(F)(F)F)c(C#N)c(Sc2ccccc2)n1 |  | inactive: -3.85%
36 | Cc1cc(C(=O)Nc2cccc(S(=O)(=O)N3CCCCC3)c2)c2ccccc2n1 | inconclusive: 5.22 µM [inhibitor, partial curve, poor fit] | 
37 | Cc1cccc(CC(=O)Nc2ccc(C(=O)N3CCCCC3)cc2)c1 | inconclusive: 9.28 µM [inhibitor, partial curve, poor fit] | 
38 | Cc1c(C(=O)NCCCN2CCOCC2)sc2nc(-c3ccccc3)cn12 | inconclusive: 18.5 µM [inhibitor, single point] | 
39 | CC(/C=C/c1ccccc1)=N\Nc1ccccc1[N+](=O)[O-] |  | inactive: -25.9%
40 | CCC(=O)N1N=C(c2ccc(C)o2)CC1c1ccc(Br)cc1 (stereo not given) | inconclusive: 18.5 µM [inhibitor, single point] | 
41 | CC(=O)N=c1scc(-c2ccccc2)n1-c1cccc(O)c1 |  | inactive: -2.99%
42 | CCOC(=O)c1ccccc1N=Cc1c(O)c2ccccc2oc1=O | inconclusive: 10.4 µM [inhibitor, single point] | 
43 | CCOC(=O)Cc1csc(NC(=O)c2ccc(F)cc2)n1 |  | inactive: 5.06%
44 | Cc1cc(C)n(-c2ccc(NC(=O)C3CCCCN3C(=O)c3ccoc3C)cc2)n1 (stereo not given) |  | inactive: 13.2%
45 | O=C(NN1CCCCC1)c1ccccc1 |  | inactive: 31.7%
46 | CC1CCCC(C)N1C(=O)CSc1nnc(COc2ccc(F)cc2)o1 (stereo not given) |  | inactive: 6.33%
47 | O=C(NCc1ccco1)C1CCN(S(=O)(=O)c2ccccc2C(F)(F)F)CC1 | inconclusive: 8.28 µM [inhibitor, partial curve, poor fit] | 
48 | COc1ccc(NC2=Nc3ccccc3N3C2=Nc2c(c(C)nn2-c2ccc(C)cc2)C3c2cccnc2)cc1 (stereo not given) | active: 2.08 µM | 
49 | Cc1cccc(N2CCN(c3cccc(C)c3)C2c2cccnc2)c1 |  | inactive: -23.6%
50 | O=C(CN1CCN(c2ccccc2)CC1)N1CCN(c2ccccc2)CC1 | inconclusive: 11.7 µM [inhibitor, single point] | 

Row | SMILES | Potency | activity change, negative = inhibition
51 | CC(=O)C1=C(O)C(=O)N(c2ccc(O)cc2)C1c1ccc([N+](=O)[O-])cc1 (stereo not given) | inconclusive: 16.5 µM [inhibitor, single point] | 
52 | CCOC(=O)c1cccc(NC(=O)CSc2nnc(COc3ccccc3C)o2)c1 | active: 7.38 µM | 
53 | O=C(CC(C(=O)NCc1ccccc1)c1nc2ccccc2c(=O)[nH]1)NCc1ccccc1 (stereo not given) |  | inactive: 11.7%
54 | Cc1ncsc1C(=O)NCc1ccc(N2CCCC2=O)cc1 | active: 4.65 µM | 
55 | c1cc(-c2sc(-c3ccncc3)c(-c3ccncc3)c2-c2ccncc2)ccn1 |  | inactive: 141%
56 | CCOc1ccc(C(=O)NCC(=O)N2CCN(c3ccc(C(F)(F)F)cn3)CC2)cc1 | inconclusive: 0.928 µM [inhibitor, full curve] | 
57 | CCN(C(=O)Cn1c(=O)oc2cc(S(=O)(=O)N3CCOCC3)ccc21)c1ccccc1 | active: 4.15 µM | 
58 | CCn1cc(CN2CCN(CC(C)(C)C)C(CCO)C2)c2ccccc21 (stereo not given) | inconclusive: 13.1 µM [inhibitor, single point] | 
59 | CN(C)CCCn1c(=O)n(CCc2ccccc2)c(=O)c2c3c(sc21)CCCCC3 | inconclusive: 10.4 µM [inhibitor, partial curve, poor fit] | 
60 | COc1ccccc1C(=O)C1CCCN(Cc2ccc(Oc3ncccn3)cc2)C1 (stereo not given) | inconclusive: 18.5 µM [inhibitor, partial curve, poor fit] | 
61 | O=C1c2ccccc2C(=O)c2ccccc21 | active: 15.1 µM | 
62 | CS(=O)(=O)NCCNc1cc(Cl)ccc1[N+](=O)[O-] | inconclusive: 1.85 µM [inhibitor, partial curve] | 
63 | COc1ccc(C(C)NC(=O)C23CC4CC(CC(C4)C2)C3)cc1 (stereo not given) | inconclusive: 3.7 µM [inhibitor, full curve] | 
64 | COc1cccc(NC(=O)CSc2nnc(-c3ccoc3C)n2-c2ccccc2)c1 | inconclusive: 18.5 µM [inhibitor, single point] | 
65 | CCCC(=O)Nc1cc2c3c(c1)C(C)C(=O)N3CCC2 (stereo not given) |  | inactive: 0.257%
66 | COCCn1nnnc1C(c1cc2cc(OC)c(OC)cc2[nH]c1=O)N1CCN(c2ccc(O)cc2)CC1 (stereo not given) | inconclusive: 8.28 µM [inhibitor, partial curve, poor fit] | 
67 | Cc1ccc(C(N)=Nc2ccccc2)cc1 |  | inactive: 70.3%
68 | O=C(NC1CCSC1=O)c1ccccc1 (stereo not given) | inconclusive: 0.465 µM [inhibitor, partial curve, poor fit] | 
69 | CCCCN(CC)CCCNC(=O)c1cc2c(=O)[nH]c3ccccc3c2s1 | inconclusive: 10.4 µM [inhibitor, single point] | 
70 | CC(C)Cc1nc(Nc2ccc(S(=O)(=O)N3CCCC3)cc2)c2nnn(Cc3ccccc3)c2n1 | inconclusive: 9.28 µM [inhibitor, partial curve, poor fit] | 
71 | Cc1cc(CNC(=O)Cn2cc([N+](=O)[O-])cn2)c2ccccc2n1 | inconclusive: 7.38 µM [inhibitor, partial curve, poor fit] | 
72 | COc1ccc(OCC(=O)NS(=O)(=O)c2ccccc2)cc1 |  | inactive: 14.6%
73 | O=C(O)CC(c1cccc([N+](=O)[O-])c1)N1Cc2ccccc2C1=O (stereo not given) |  | inactive: -4.02%
74 | Cc1nc2ccccc2nc(C)c1=NOCc1cccc(Cl)c1 | inconclusive: 0.928 µM [inhibitor, partial curve, poor fit] | 
75 | C=CCC(C(=O)Oc1c(C(C)(C)C)cc(C)cc1C(C)(C)C)c1ccccc1 (stereo not given) | inconclusive: 3.7 µM [inhibitor, single point] | 

A different layout for part of the listing above:
O=C(CCN1CCN(c2ccccc2)CC1)Nc1cccc(Br)c1
  Potency: inconclusive: 4.15 µM [inhibitor, single point]
Cc1ccc(SCc2c(-c3ccccc3)nn(C)c2Cl)cc1
  Potency: inconclusive: 18.5 µM [inhibitor, single point]
CN(C)CCCN(C(=O)c1cc(Cl)sc1Cl)c1nc2cc3c(cc2s1)OCO3
  Potency: inconclusive: 20.8 µM [inhibitor, single point]
O=C(c1ccc(CSc2nc3ccncc3[nH]2)cc1)N1CCCCC1
  Potency: active: 11.7 µM

Pulled one by one from the entries so far (two):
Row | SMILES | Potency | activity change, negative = inhibition
71 | Cc1cc(CNC(=O)Cn2cc([N+](=O)[O-])cn2)c2ccccc2n1 | inconclusive: 7.38 µM [inhibitor, partial curve, poor fit] | 
60 | COc1ccccc1C(=O)C1CCCN(Cc2ccc(Oc3ncccn3)cc2)C1 (stereo not given) | inconclusive: 18.5 µM [inhibitor, partial curve, poor fit] | 
